For at least one compound, name, drawing or mass did not settle the structure.
Assays:
hsst3 = molecular target: T1, hsst3 (Homo sapiens, UniProt P32745); assay: Somatostatin receptor radioligand binding assay, hsst3; settings: CHO-K1 membranes, [125I-Tyr11]SS-14
T1 construct: expressed in transfected cells
Experimental: (§1) Specificity and selectivity of the somatostatin analogues used to synthesize the somatostatin-dopamine chimers were determined by a radioligand binding assay on CHO-K1 cells stably transfected with each of the SSTR subtypes, as follows. Somatostatin analogs are also described in U.S. Patent Application Publication No. 02210006790. The complete coding sequences of genomic fragments of the SSTR 1 (e.g., Genbank accession No. M81829), SSTR 2 (e.g., Genbank accession No. M81830), SSTR 3 (e.g., Genbank accession No. L07062), and SSTR 4 (e.g., Genbank accession No. AL049651) genes and a cDNA clone for SSTR 5 (e.g., Genbank accession No. D16827) was subcloned into the mammalian expression vector pCMV (Life Technologies, Milano, Italy). Other SSTR sequences are known to the skilled artisan. Clonal cell lines stably expressing SSTR's 1-5 were obtained by transfection into CHO-K1 cells (ATCC, Manassas, Va., USA) using the calcium phosphate co-precipitation method (Davis L, et al., 1994 In: Basic methods in Molecular Biology, 2nd edition, Appleton & Lange, Norwalk, Conn., USA: 611-646). The plasmid pRSV-neo (ATCC) was included as a selectable marker. […]
(§2) Using the discussed assays, the inhibition constants (Ki) for the five human somatostatin receptors (hSSTR1-hSSTR5) and the dopamine-2 receptor (hUTII and hDA2) were measured for the exemplified somatostatin-dopamine conjugates, as follows: […]

By UniProt entry, the sequences of proteins in these tests, tags left out. Where a name states a change or a piece, a line headed by the entry shows the natural chain unless it says otherwise.
UniProt P32745: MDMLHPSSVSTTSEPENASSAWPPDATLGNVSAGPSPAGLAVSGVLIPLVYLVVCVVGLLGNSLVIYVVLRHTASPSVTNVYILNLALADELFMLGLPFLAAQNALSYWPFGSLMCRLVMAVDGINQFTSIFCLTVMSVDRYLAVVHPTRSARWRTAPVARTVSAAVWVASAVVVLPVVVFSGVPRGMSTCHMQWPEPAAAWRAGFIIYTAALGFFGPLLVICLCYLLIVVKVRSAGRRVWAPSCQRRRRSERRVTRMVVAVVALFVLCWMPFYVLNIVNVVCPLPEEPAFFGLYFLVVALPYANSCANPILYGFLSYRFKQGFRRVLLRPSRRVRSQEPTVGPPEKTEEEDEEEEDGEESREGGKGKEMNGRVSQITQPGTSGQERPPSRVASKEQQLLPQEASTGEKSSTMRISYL
UniProt P31391: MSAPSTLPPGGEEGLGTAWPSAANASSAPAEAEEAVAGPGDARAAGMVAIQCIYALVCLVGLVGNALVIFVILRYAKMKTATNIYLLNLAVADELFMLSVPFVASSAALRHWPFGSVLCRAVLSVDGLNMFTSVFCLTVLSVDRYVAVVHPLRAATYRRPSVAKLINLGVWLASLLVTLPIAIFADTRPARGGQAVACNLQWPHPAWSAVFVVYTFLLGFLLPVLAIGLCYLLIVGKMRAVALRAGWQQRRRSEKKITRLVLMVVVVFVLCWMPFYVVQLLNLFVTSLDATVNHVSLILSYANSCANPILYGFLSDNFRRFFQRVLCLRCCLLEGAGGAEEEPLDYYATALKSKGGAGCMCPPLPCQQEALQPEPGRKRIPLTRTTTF
UniProt P30874: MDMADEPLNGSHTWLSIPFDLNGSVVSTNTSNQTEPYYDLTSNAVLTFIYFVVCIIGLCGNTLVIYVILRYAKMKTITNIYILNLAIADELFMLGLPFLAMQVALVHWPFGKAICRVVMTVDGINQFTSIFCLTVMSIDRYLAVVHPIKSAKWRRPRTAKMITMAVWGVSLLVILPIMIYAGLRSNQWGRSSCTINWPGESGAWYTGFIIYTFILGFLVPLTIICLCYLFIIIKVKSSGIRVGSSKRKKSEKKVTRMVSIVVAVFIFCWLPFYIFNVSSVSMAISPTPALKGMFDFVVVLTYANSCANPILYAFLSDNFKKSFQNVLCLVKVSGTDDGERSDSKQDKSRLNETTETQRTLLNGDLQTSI
UniProt P30872: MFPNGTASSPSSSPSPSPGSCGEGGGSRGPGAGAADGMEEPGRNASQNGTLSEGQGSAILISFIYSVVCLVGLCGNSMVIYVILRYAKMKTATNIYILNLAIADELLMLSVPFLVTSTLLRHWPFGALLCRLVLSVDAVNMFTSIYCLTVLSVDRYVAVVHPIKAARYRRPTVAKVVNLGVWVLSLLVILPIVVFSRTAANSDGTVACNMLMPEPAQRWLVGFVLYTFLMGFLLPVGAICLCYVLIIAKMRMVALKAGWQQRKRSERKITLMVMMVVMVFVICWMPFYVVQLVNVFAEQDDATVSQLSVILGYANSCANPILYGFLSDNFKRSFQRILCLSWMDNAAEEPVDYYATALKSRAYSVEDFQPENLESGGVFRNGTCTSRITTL

hUTII = molecular target: T2, hUTII (Homo sapiens, UniProt Q9UKP6); assay: hUTII inhibition constant; type: binding
T2 sequence (Q9UKP6 1-389): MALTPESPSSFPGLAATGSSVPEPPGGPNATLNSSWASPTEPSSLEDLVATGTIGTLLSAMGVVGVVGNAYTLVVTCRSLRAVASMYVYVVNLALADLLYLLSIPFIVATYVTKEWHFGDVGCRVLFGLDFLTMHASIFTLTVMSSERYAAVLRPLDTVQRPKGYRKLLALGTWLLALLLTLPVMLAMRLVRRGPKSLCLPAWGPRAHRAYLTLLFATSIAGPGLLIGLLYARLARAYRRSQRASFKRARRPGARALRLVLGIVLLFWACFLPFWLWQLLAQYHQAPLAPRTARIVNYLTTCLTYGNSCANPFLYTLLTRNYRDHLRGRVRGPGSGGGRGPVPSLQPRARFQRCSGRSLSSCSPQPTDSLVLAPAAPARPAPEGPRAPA
Experimental: as §2

hsst4 = molecular target: T3, hsst4 (Homo sapiens, UniProt P31391); assay: Somatostatin receptor radioligand binding assay, hsst4; settings: CHO-K1 membranes, [125I-Tyr11]SS-14
T3 construct: expressed in transfected cells

hsst2 = molecular target: T4, hsst2 (Homo sapiens, UniProt P30874); assay: Somatostatin receptor radioligand binding assay, hsst2; settings: CHO-K1 membranes, [125I]MK-678
T4 construct: expressed in transfected cells
Experimental: as §1, with “marker. Clonal cell lines were selected in RPMI 1640 media containing 0.5 mg/mL of G418 (Life Technologies, Milano, Italy), ring cloned, and expanded into culture.” for “marker.”

hsst1 = molecular target: T5, hsst1 (Homo sapiens, UniProt P30872); assay: Somatostatin receptor radioligand binding assay, hsst1; settings: CHO-K1 membranes, [125I-Tyr11]SS-14
T5 construct: expressed in transfected cells
Experimental: as §1, §2

## CC(C)[C@@H]1NC(=O)[C@H](CCCCN)NC(=O)[C@@H](Cc2c[nH]c3ccccc23)NC(=O)[C@H](Cc2ccc(O)c(I)c2)NC(=O)[C@@H](NC(=O)[C@@H](Cc2ccccc2)NC(=O)COCCOCCNC(=O)CSC[C@@H]2C[C@@H]3c4cccc5[nH]cc(c45)C[C@H]3N(C)C2)CSSC[C@@H](C(=O)N[C@H](C(N)=O)[C@@H](C)O)NC1=O [Example 41]
hsst3
  Ki: 165 nM
hUTII
  Ki: 27 nM
hsst4
  Ki: ≥ 1000 nM
hsst2
  Ki: 0.7 nM
hsst1
  Ki: 416 nM
